Among the data in article PMC12654916 are binding values, retold here.

No constants are given. Whether binding was seen depends on the method and setting. Binding seen in cells or lysates may run through a third protein. These calls come from enrichment with a bait or labelling near it, and not all partners need be listed.

The target of this assay is HA-tagged SIN3 (Drosophila melanogaster). Put plainly: affinity purification with mass spectrometry; HA-tagged SIN3 immunoprecipitated from Drosophila S2 cells treated with PBS or 2-DG; no tag control; TMTpro 16plex with LC-MS/MS (RTS, SPS); five biological replicates.

B1: Negative elongation factor A (NELF-A) (protein, UniProt Q86NP2 1-1251)
chain: MANVRDSDTSLWLHNKLGTSNDSWINGSICSQLNKEVLRNIKECFPDLQTQVKLKLLLSFLHIPRRLVEEWKAELEEVIEVAGLDSELWVSMLAETMKTFPATSSLNTEISDYEDTRPIFIDMVNDLRKLVTKHSDLGMLPLECQYLNKNALISVVGQQPAPVKHFTLKRKPKSAQLRTELLHKSADAQSSLKKASAPTIPLRSRGMPRKMTDTTPLKGIPSRMPTTGFRSATVPGNAAQRPNLSRTPAGRKDGGIKLIEFTEQPLGYAAAKKRKREQQLEEQQKKQEQKQQQAAAAAAAAATAAASNAGDSSPTDAATASGGETPVTPTSANNSFEIKMEPQQLNQSAGSLEEPQDDEMSGKANMECDIETPEYATATLDFAQATSTSVADGQPGKPAVETKLKTPRTPKSAAKLNNNNNNNNNNSFNHTPKRIKQEIEIKSEEIIVPASIKLEKIETSPSTQRVSIQQQPPSLVQRTPHLLIRSSPQKRQNNGATTSAGTTTTTVGNTTIKMEKLDIKPMIRATGVSPSTSAGTTTTLLTPQQLRQAANPLANLPNNISVKITSAKAKAAAAAAATSSGSQTQSQQPQTLQVQQAPQQSHPPLLINSSTPVILASSPSAQRAKALALPSSSTSATTTTTIPSQAIKTMPLSQLKTATNSGPVIISQTIIQPAKRAQQQAGTSSAAAASQQQQQQQSQQQLLHQQIQQQTQQQAQLPQQPQQQQTQYILATPQQQPQQIQQQQQQQQPILPTLTSFSHSRPMPQTTTLYQATTPSGSGQTPTKILLKTSGSSSVVMTPLRQAQPQQATAVVSSNPPPLVATSAAVVSPGQTTLNIQNVQLPNRPVTIQPASQAAQQQHMQAQLQQQQPHPQHTIVANTTATQQPKLSQVLMQPTAAVGTSGVSALNVSPTSGKNKTIILTQKGVILRNIGGDMYQQIPISNVGNMQGLGGTTLMTTTAGPPSLVKTTPSSGVQLQQQQSGKQILPTLIPTSSLGGQHVIVQQQQPTNVIGNSQQQTIIRPVMTNVGGGLTTLPQGLTLIQRPGQQPQLVQVQAAPGSTQRTIITQSNTAAAASQQQPRQQQQQILVQHKPAPTLQQRLVTSTTSGGQGQQGNPNAGLPRTVQVQVQAQQQQQPQQQQATQQQSQQAPQRRGLSLSNEHVHKAHEMFRKANRVSRPDKALILGFMAGLRENPRPNNENVLVIKLGETEEKVQQDNGHTALCLVESHIRLDYNTGEWKTFQNYRLQDQSAAS
For the molecule B1, the binding result is recorded as “binds”.

B2: MRG15 (protein, UniProt Q9Y0I1 1-424)
chain: MGEVKPAKVENYSTGTDANTLFVDGERVLCFHGPLIYEAKVLKTKPDATPVEYYIHYAGWSKNWDEWVPENRVLKYNDDNVKRRQELARQCGERSKKDNKKGSAKAKKMEQMRNESRASTPSKDSNTSQSTASSTPTTSAGPGSKSEAGSTGTTTTNSTANSTTSRAHRKSTQSTPSTARPGTPSDKKEDPAAAETTEEEGPVAPKKKRMSEQRPSLTGSDVAEKPLPPTTTPSTPTTEPAPCVESEEAYAAKVEVKIKIPDELKHYLTDDWYAVVREHKLLELPAKVTVQQISEQYLAHKKSVKSTSASKEVAINDVLDGIVEYFNVMLGSQLLYKFERTQYADVMQKHPDTPLSELYGSFHLLRLFVRLGSMLSYSALDQQSMQNLLTHVQDFLKFLVKNSSIFFSMSNFINVDPEYVRNAQ
Turning to B2, the binding result is “binds”.
